Data published in the supplement of paper PMC11546906.
This is one part of the list. This data set is noisy: repeats of one test often differ as much as different tests do.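 FDA-approved drugs were each paired with colistin at one-eighth its MIC and screened against a multidrug-resistant, mcr-1-positive clinical E. coli isolate, with OD600 read after 24 h. Drug-free bacteria served as growth control, plain broth as blank. Combinations were active if OD600 dropped below 0.2.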

test system: Escherichia coli 42 (mcr-1-positive clinical isolate); experiment: OD600 after 24 h growth with compound plus colistin (absorbance units (OD600)); higher = more bacterial growth (less inhibition); settings: first compound 25 µM; colistin concentration 0.5 ug/mL; incubation time 24 h; 37 °C

OD600, inactive:
C[C@H]1c2cccc(O)c2C(O)=C2C(=O)[C@]3(O)C(O)=C(C(N)=O)C(=O)[C@@H](N(C)C)[C@@H]3[C@@H](O)[C@@H]21 [Doxycycline] + CCC(C)CCCC(=O)N[C@@H](CCN)C(=O)N[C@H](C(=O)N[C@@H](CCN)C(=O)N[C@H]1CCNC(=O)[C@H]([C@@H](C)O)NC(=O)[C@H](CCN)NC(=O)[C@H](CCN)NC(=O)[C@H](CC(C)C)NC(=O)[C@@H](CC(C)C)NC(=O)[C@H](CCN)NC1=O)[C@@H](C)O [colistin] 0.719
CC(C)(O)c1ccccc1CC[C@@H](SCC1(CC(=O)O)CC1)c1cccc(/C=C/c2ccc3ccc(Cl)cc3n2)c1 [Montelukast] + CCC(C)CCCC(=O)N[C@@H](CCN)C(=O)N[C@H](C(=O)N[C@@H](CCN)C(=O)N[C@H]1CCNC(=O)[C@H]([C@@H](C)O)NC(=O)[C@H](CCN)NC(=O)[C@H](CCN)NC(=O)[C@H](CC(C)C)NC(=O)[C@@H](CC(C)C)NC(=O)[C@H](CCN)NC1=O)[C@@H](C)O [colistin] 1.12
CC(C)(C)NC(=O)[C@H]1CC[C@H]2[C@@H]3CC[C@H]4NC(=O)C=C[C@]4(C)[C@H]3CC[C@]12C [Finasteride] + CCC(C)CCCC(=O)N[C@@H](CCN)C(=O)N[C@H](C(=O)N[C@@H](CCN)C(=O)N[C@H]1CCNC(=O)[C@H]([C@@H](C)O)NC(=O)[C@H](CCN)NC(=O)[C@H](CCN)NC(=O)[C@H](CC(C)C)NC(=O)[C@@H](CC(C)C)NC(=O)[C@H](CCN)NC1=O)[C@@H](C)O [colistin] 0.93
CC(O)(P(=O)(O)O)P(=O)(O)O [Etidronic acid] + CCC(C)CCCC(=O)N[C@@H](CCN)C(=O)N[C@H](C(=O)N[C@@H](CCN)C(=O)N[C@H]1CCNC(=O)[C@H]([C@@H](C)O)NC(=O)[C@H](CCN)NC(=O)[C@H](CCN)NC(=O)[C@H](CC(C)C)NC(=O)[C@@H](CC(C)C)NC(=O)[C@H](CCN)NC1=O)[C@@H](C)O [colistin] 1.02
C#Cc1cccc(Nc2ncnc3cc(OCCOC)c(OCCOC)cc23)c1 [Erlotinib] + CCC(C)CCCC(=O)N[C@@H](CCN)C(=O)N[C@H](C(=O)N[C@@H](CCN)C(=O)N[C@H]1CCNC(=O)[C@H]([C@@H](C)O)NC(=O)[C@H](CCN)NC(=O)[C@H](CCN)NC(=O)[C@H](CC(C)C)NC(=O)[C@@H](CC(C)C)NC(=O)[C@H](CCN)NC1=O)[C@@H](C)O [colistin] 1.17
